Data from patent US20250326838A1.
No constants are given. Whether binding was seen depends on the method and setting. Binding calls can cover weak binding; strength is not graded here. Blank lines part the entries; values can stand above or below the binder they belong to.

How the values were obtained:
[1] = target: His-tagged mouse Siglec15 protein (mouse); test: ELISA, His-tagged mouse Siglec15 coated
[2] = target: His-tagged mouse Siglec15 protein (mouse); test: ELISA, plate coated with His-tagged mouse Siglec15

binding [1]: binds
binding [2]: binds
B1: 14A7 monoclonal antibody (antibody, V domains shown)
VH: DVQLQESGPGLVKPSQSLSLTCTVTGYSITSDFAWNWIRQFPGNKLEWMGYIRFSGSTTYKPTLKSRISITRDTSKNQFFLQLNSVTTEDSATYYCAREDYDGLFDYWGQGTTLTVTS
VL: DVLMTQTPLSLPVSLGDHASISCRSSQTILHSNGNTYLDWYLQKPGQSPKLLIYKVSNRFSGVPDRFSGSGSGTDFTLKISRVEAEDLGVYYCFQGSHVPYTFGGGTKLEIK

binding [1]: binds
binding [2]: binds
B2: 1-10E5 monoclonal antibody (antibody, V domains shown)
VH: DVKLVESGGGLVKPGGSLKLSCVVSGLTFSRYTMSWVRQTPEKRLEWVATISSGGNSTYYPDSVKGRFTISRDDAKDTLYLQMSSLKSEDTAMYYCTNYGYFFDYWGQGTTLTVSS
VL: DIQMTQSPASLSASVGETVTITCRASENIYSFLAWYQQKQGKSPQLLVYNAKTLAEGVPSRFSGSGSGTQFSLKINSLQPEDFGSYYCQHHYDRPLTFGAGTKLELK
